Data taken from the supplement of paper PMC8920030.
Further values from the same series stand in other lists. Where a SMILES comes first, the peptide text is derived from it. Bridges are numbered along the chain shown (N, C = ends). [ ]: non-standard residue; d: D form. The star is where a group is joined. Heptanoyl(5-Me) = CCC(C)CCCC(=O)*; Dab = NCC[C@H](N)C(=O)O

How the values were obtained:
Conditions in all cases: growth mode: biofilm, 24 h; exposure time: 24 h
[1] = compound: T1, NC[C@H]1O[C@H](O[C@H]2[C@H](O)[C@@H](O[C@H]3O[C@H](CO)[C@@H](O)[C@H](N)[C@H]3O)[C@H](N)C[C@@H]2N)[C@H](N)C[C@@H]1O [tobramycin]; assay: minimum concentration of killing, 1-log CFU reduction of biofilm (MCK90); higher = more biofilm tolerance
Experimental: (§1)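 Clinical P. aeruginosa isolates were grown as static biofilms for 24 h at 37 °C in LB in half-area 96-well plates, then exposed for 24 h to tobramycin at 1, 4, 16, 64, 256 or […]. Surviving CFU were counted by spotting serial dilutions. MCK is the lowest tested concentration giving the stated log reduction in CFU versus an untreated control; '>1024' means the reduction was not reached at the top dose, and 1 is the lowest dose tested (≤1).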

[2] = compound: T1, tobramycin; assay: minimum concentration of killing, 2-log CFU reduction of biofilm (MCK99); higher = more biofilm tolerance
Experimental: as §1

[3] = compound: T1, tobramycin; assay: minimum concentration eradicating biofilm below detection limit (MCK-E); higher = more biofilm tolerance
Experimental: as §1

[4] = compound: T2, CCC(C)CCCC(=O)N[C@@H](CCN)C(=O)N[C@H](C(=O)N[C@@H](CCN)C(=O)N[C@H]1CCNC(=O)[C@H]([C@@H](C)O)NC(=O)[C@H](CCN)NC(=O)[C@H](CCN)NC(=O)[C@H](CC(C)C)NC(=O)[C@@H](CC(C)C)NC(=O)[C@H](CCN)NC1=O)[C@@H](C)O [colistin]; assay: minimum concentration of killing, 2-log CFU reduction of biofilm (MCK99); higher = more biofilm tolerance
Experimental: as §1, with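 “colistin” for “tobramycin”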

[5] = compound: T1, tobramycin; assay: minimum concentration of killing, 4-log CFU reduction of biofilm (MCK99.99); higher = more biofilm tolerance
Experimental: as §1

[6] = compound: T2, colistin; assay: minimum concentration eradicating biofilm below detection limit (MCK-E); higher = more biofilm tolerance
Experimental: as §1, with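 “colistin” for “tobramycin”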

[7] = compound: T2, colistin; assay: minimum concentration of killing, 4-log CFU reduction of biofilm (MCK99.99); higher = more biofilm tolerance
Experimental: as §1, with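 “colistin” for “tobramycin”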

[8] = compound: T2, colistin; assay: minimum concentration of killing, 1-log CFU reduction of biofilm (MCK90); higher = more biofilm tolerance
Experimental: as §1, with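 “colistin” for “tobramycin”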

Test System	minimum concentration of killing [1]	minimum concentration of killing [2]	minimum concentration eradicating biofilm below detection limit [3]	minimum concentration of killing [4]	minimum concentration of killing [5]	minimum concentration eradicating biofilm below detection limit [6]	minimum concentration of killing [7]	minimum concentration of killing [8]
Pseudomonas aeruginosa clinical isolate CF577_Iso7	1020 µg/mL	1020 µg/mL	> 1020 µg/mL	64 µg/mL	> 1020 µg/mL	64 µg/mL	64 µg/mL	≤ 1 µg/mL
Pseudomonas aeruginosa clinical isolate CF590_Iso5	4 µg/mL	16 µg/mL	> 1020 µg/mL	64 µg/mL	> 1020 µg/mL	1020 µg/mL	1020 µg/mL	16 µg/mL
Pseudomonas aeruginosa clinical isolate CF592_Iso2	4 µg/mL	4 µg/mL	256 µg/mL	256 µg/mL	64 µg/mL	256 µg/mL	256 µg/mL	64 µg/mL
Pseudomonas aeruginosa clinical isolate CF609_Iso3	64 µg/mL	256 µg/mL	256 µg/mL	64 µg/mL	256 µg/mL	64 µg/mL	64 µg/mL	16 µg/mL
Pseudomonas aeruginosa clinical isolate CF609_Iso4	256 µg/mL	1020 µg/mL	> 1020 µg/mL	16 µg/mL	> 1020 µg/mL	64 µg/mL	64 µg/mL	16 µg/mL
Pseudomonas aeruginosa clinical isolate CH2500	4 µg/mL	64 µg/mL	1020 µg/mL	256 µg/mL	256 µg/mL	256 µg/mL	256 µg/mL	64 µg/mL
Pseudomonas aeruginosa clinical isolate CH2502	4 µg/mL	16 µg/mL	256 µg/mL	64 µg/mL	64 µg/mL	256 µg/mL	256 µg/mL	16 µg/mL
Pseudomonas aeruginosa clinical isolate CH2678	> 1020 µg/mL	> 1020 µg/mL	> 1020 µg/mL	256 µg/mL	> 1020 µg/mL	256 µg/mL	256 µg/mL	256 µg/mL
Pseudomonas aeruginosa clinical isolate CH2682	16 µg/mL	64 µg/mL	1020 µg/mL	256 µg/mL	1020 µg/mL	1020 µg/mL	1020 µg/mL	64 µg/mL
Pseudomonas aeruginosa clinical isolate CH2685	4 µg/mL	16 µg/mL	256 µg/mL	256 µg/mL	64 µg/mL	256 µg/mL	256 µg/mL	256 µg/mL
Pseudomonas aeruginosa clinical isolate CH2687	4 µg/mL	16 µg/mL	1020 µg/mL	256 µg/mL	–	256 µg/mL	256 µg/mL	256 µg/mL
Pseudomonas aeruginosa clinical isolate CH2690	16 µg/mL	16 µg/mL	256 µg/mL	256 µg/mL	256 µg/mL	1020 µg/mL	256 µg/mL	256 µg/mL
Pseudomonas aeruginosa clinical isolate CH2698	256 µg/mL	256 µg/mL	> 1020 µg/mL	256 µg/mL	1020 µg/mL	256 µg/mL	256 µg/mL	16 µg/mL
Pseudomonas aeruginosa clinical isolate CH2706	64 µg/mL	1020 µg/mL	> 1020 µg/mL	256 µg/mL	> 1020 µg/mL	256 µg/mL	256 µg/mL	64 µg/mL
Pseudomonas aeruginosa clinical isolate CH2707	> 1020 µg/mL	> 1020 µg/mL	> 1020 µg/mL	256 µg/mL	> 1020 µg/mL	256 µg/mL	256 µg/mL	64 µg/mL
Pseudomonas aeruginosa clinical isolate CH2713	≤ 1 µg/mL	≤ 1 µg/mL	256 µg/mL	256 µg/mL	16 µg/mL	256 µg/mL	256 µg/mL	256 µg/mL
Pseudomonas aeruginosa clinical isolate CH2718	≤ 1 µg/mL	≤ 1 µg/mL	64 µg/mL	64 µg/mL	16 µg/mL	256 µg/mL	256 µg/mL	64 µg/mL
Pseudomonas aeruginosa clinical isolate CH2724	≤ 1 µg/mL	256 µg/mL	1020 µg/mL	64 µg/mL	1020 µg/mL	256 µg/mL	256 µg/mL	64 µg/mL
Pseudomonas aeruginosa clinical isolate CH2730	4 µg/mL	4 µg/mL	64 µg/mL	256 µg/mL	16 µg/mL	256 µg/mL	256 µg/mL	256 µg/mL
Pseudomonas aeruginosa clinical isolate CH3462	4 µg/mL	256 µg/mL	> 1020 µg/mL	–	> 1020 µg/mL	–	–	–
Pseudomonas aeruginosa clinical isolate CH4681	256 µg/mL	256 µg/mL	256 µg/mL	–	256 µg/mL	–	–	–
Pseudomonas aeruginosa clinical isolate CH5291	64 µg/mL	256 µg/mL	> 1020 µg/mL	256 µg/mL	1020 µg/mL	–	256 µg/mL	256 µg/mL
Pseudomonas aeruginosa clinical isolate CH5353	≤ 1 µg/mL	4 µg/mL	1020 µg/mL	256 µg/mL	256 µg/mL	–	256 µg/mL	256 µg/mL

Test System	minimum concentration of killing [1]	minimum concentration of killing [2]	minimum concentration eradicating biofilm below detection limit [3]	minimum concentration of killing [4]	minimum concentration of killing [5]	minimum concentration eradicating biofilm below detection limit [6]	minimum concentration of killing [7]	minimum concentration of killing [8]
Pseudomonas aeruginosa clinical isolate CH5363	–	–	256 µg/mL	256 µg/mL	–	256 µg/mL	256 µg/mL	256 µg/mL
Pseudomonas aeruginosa clinical isolate CH5531	–	–	–	256 µg/mL	–	256 µg/mL	256 µg/mL	256 µg/mL
Pseudomonas aeruginosa clinical isolate CH5548	–	–	–	256 µg/mL	–	256 µg/mL	256 µg/mL	256 µg/mL
Pseudomonas aeruginosa clinical isolate F2026	256 µg/mL	–	–	–	–	–	–	–
Pseudomonas aeruginosa clinical isolate F2029	4 µg/mL	256 µg/mL	–	–	–	–	–	–
Pseudomonas aeruginosa clinical isolate F2030	256 µg/mL	1020 µg/mL	> 1020 µg/mL	–	–	–	–	–
Pseudomonas aeruginosa clinical isolate F2034	4 µg/mL	256 µg/mL	> 1020 µg/mL	–	> 1020 µg/mL	–	–	–
Pseudomonas aeruginosa clinical isolate F2035	16 µg/mL	64 µg/mL	1020 µg/mL	–	1020 µg/mL	–	–	–
Pseudomonas aeruginosa clinical isolate F2044	≤ 1 µg/mL	4 µg/mL	256 µg/mL	256 µg/mL	16 µg/mL	–	256 µg/mL	64 µg/mL
Pseudomonas aeruginosa clinical isolate F2045	> 1020 µg/mL	> 1020 µg/mL	> 1020 µg/mL	> 1020 µg/mL	> 1020 µg/mL	–	> 1020 µg/mL	256 µg/mL
Pseudomonas aeruginosa clinical isolate F2055	1020 µg/mL	> 1020 µg/mL	> 1020 µg/mL	–	> 1020 µg/mL	–	–	–
Pseudomonas aeruginosa clinical isolate F2059	1020 µg/mL	> 1020 µg/mL	> 1020 µg/mL	256 µg/mL	> 1020 µg/mL	–	256 µg/mL	256 µg/mL
Pseudomonas aeruginosa clinical isolate F2065	4 µg/mL	64 µg/mL	> 1020 µg/mL	256 µg/mL	256 µg/mL	–	256 µg/mL	256 µg/mL
Pseudomonas aeruginosa clinical isolate F2075	16 µg/mL	64 µg/mL	–	256 µg/mL	256 µg/mL	256 µg/mL	256 µg/mL	64 µg/mL
Pseudomonas aeruginosa clinical isolate F2081	4 µg/mL	64 µg/mL	> 1020 µg/mL	256 µg/mL	–	1020 µg/mL	1020 µg/mL	256 µg/mL
Pseudomonas aeruginosa clinical isolate M70639645	256 µg/mL	256 µg/mL	1020 µg/mL	256 µg/mL	1020 µg/mL	–	256 µg/mL	64 µg/mL
Pseudomonas aeruginosa clinical isolate MD1496	64 µg/mL	–	256 µg/mL	256 µg/mL	–	256 µg/mL	256 µg/mL	64 µg/mL
Pseudomonas aeruginosa clinical isolate MD1498	–	–	–	256 µg/mL	–	256 µg/mL	256 µg/mL	64 µg/mL
Pseudomonas aeruginosa clinical isolate MD9723	≤ 1 µg/mL	4 µg/mL	256 µg/mL	64 µg/mL	–	256 µg/mL	256 µg/mL	64 µg/mL
Pseudomonas aeruginosa clinical isolate MHH15103	≤ 1 µg/mL	4 µg/mL	–	256 µg/mL	–	256 µg/mL	256 µg/mL	≤ 1 µg/mL
Pseudomonas aeruginosa clinical isolate MHH16951	–	–	> 1020 µg/mL	16 µg/mL	–	64 µg/mL	64 µg/mL	16 µg/mL
Pseudomonas aeruginosa clinical isolate PSAE1439	4 µg/mL	64 µg/mL	1020 µg/mL	–	1020 µg/mL	–	–	–
